This experiment has as its target SHP-1 tyrosine phosphatase (immunoprecipitated from lysates of hERG-transfected HEK293 cells) (UniProt P29350). Nature of the experiment: co-IP; lysates (250 µg) of HEK293 cells transfected with wt or ΔITIM hERG, pervanadate-treated (15 min, 37°C); immunoprecipitation with anti-SHP-1 (sc-287) and protein-G beads; blot with anti-hERG. For orientation: The hERG channel carries a current that helps repolarise heart muscle cells.

The chains behind the UniProt entries cited, without tags or fusion partners.
UniProt P29350: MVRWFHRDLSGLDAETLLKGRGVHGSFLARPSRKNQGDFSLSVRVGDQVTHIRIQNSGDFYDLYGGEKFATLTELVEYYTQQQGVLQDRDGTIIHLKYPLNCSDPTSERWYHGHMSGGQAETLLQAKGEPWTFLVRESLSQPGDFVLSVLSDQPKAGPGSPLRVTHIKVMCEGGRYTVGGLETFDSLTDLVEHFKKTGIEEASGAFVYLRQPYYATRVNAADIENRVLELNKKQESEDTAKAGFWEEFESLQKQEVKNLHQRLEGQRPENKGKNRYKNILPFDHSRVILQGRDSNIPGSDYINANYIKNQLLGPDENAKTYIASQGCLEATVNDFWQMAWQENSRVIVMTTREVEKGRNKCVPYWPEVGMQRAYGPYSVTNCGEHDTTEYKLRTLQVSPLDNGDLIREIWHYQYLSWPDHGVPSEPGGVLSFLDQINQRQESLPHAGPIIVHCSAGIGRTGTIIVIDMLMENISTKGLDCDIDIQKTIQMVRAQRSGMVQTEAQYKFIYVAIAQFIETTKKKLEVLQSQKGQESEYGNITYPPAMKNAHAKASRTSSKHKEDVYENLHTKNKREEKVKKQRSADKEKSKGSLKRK
UniProt Q12809: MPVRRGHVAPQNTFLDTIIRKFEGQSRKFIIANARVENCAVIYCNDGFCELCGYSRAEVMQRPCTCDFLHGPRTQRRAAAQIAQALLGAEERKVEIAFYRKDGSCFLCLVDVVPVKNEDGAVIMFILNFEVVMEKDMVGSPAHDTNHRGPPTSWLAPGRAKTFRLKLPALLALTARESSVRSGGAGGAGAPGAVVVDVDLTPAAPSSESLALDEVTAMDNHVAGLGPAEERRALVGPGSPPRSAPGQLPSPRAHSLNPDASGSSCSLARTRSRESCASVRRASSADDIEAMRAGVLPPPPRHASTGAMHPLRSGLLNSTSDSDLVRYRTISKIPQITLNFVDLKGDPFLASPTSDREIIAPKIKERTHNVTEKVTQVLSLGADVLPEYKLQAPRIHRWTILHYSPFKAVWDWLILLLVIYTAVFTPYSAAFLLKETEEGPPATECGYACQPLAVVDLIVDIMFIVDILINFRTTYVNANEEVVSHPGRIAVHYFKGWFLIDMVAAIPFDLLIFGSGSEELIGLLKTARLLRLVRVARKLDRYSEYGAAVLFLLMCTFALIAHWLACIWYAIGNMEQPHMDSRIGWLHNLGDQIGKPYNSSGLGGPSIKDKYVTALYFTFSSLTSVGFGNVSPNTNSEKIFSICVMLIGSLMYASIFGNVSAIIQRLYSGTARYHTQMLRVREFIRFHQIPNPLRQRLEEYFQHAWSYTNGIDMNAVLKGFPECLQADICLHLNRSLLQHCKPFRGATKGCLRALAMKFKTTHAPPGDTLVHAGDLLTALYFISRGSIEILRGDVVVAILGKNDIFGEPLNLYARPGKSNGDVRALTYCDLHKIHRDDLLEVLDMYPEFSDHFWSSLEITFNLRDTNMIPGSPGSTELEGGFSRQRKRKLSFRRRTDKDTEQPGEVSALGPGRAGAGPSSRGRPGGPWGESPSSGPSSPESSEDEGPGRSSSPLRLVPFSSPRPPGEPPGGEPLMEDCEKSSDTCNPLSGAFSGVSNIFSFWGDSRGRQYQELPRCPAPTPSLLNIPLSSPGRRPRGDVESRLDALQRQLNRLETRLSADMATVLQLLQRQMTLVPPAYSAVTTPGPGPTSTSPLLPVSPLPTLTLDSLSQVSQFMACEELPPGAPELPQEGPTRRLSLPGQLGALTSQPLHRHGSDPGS

No constants are given. Whether binding was seen depends on the method and setting. Binding seen in cells or lysates may run through a third protein. Some results given as binding are weak or reduced against the parent protein; the word gives no strength.

“myc-tagged hERG (wild-type, full-length hERG/Kv11.1/KCNH2 channel) (from UniProt Q12809 1-1159)”: the binding entry is listed as “binds”.

These data come from PMC3938566.
